# Laboratory results: patent US20040013664A1
# By UniProt entry, the sequences of proteins in these tests, tags left out. Residues count along the entry.
# UniProt P48023, residues 130-281: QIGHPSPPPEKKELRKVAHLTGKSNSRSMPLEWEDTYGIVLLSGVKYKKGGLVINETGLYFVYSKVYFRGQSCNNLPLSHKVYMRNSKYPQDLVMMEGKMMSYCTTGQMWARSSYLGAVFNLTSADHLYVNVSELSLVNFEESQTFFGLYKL
# UniProt O95150, residues 72-251: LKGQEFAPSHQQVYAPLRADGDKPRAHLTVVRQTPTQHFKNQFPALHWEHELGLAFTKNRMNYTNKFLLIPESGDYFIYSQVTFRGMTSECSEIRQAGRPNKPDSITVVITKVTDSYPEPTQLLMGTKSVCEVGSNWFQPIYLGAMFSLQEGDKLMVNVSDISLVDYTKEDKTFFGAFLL
# UniProt P25445, residues 26-169: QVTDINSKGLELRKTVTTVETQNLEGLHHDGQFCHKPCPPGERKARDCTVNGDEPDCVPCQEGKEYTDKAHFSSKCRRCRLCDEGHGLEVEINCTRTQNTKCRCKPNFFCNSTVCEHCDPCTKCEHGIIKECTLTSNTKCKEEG
# No constants are given. Whether binding was seen depends on the method and setting. For some assays here: Binding seen in cells or lysates may run through a third protein. Some results given as binding are weak or reduced against the parent protein; the word gives no strength.
# Tests used:
# [1] = molecular target: T1, Full length DR3 on cells (human) (UniProt Q93038); test: flow cytometry on transiently transfected cells
# T1 sequence (looked up): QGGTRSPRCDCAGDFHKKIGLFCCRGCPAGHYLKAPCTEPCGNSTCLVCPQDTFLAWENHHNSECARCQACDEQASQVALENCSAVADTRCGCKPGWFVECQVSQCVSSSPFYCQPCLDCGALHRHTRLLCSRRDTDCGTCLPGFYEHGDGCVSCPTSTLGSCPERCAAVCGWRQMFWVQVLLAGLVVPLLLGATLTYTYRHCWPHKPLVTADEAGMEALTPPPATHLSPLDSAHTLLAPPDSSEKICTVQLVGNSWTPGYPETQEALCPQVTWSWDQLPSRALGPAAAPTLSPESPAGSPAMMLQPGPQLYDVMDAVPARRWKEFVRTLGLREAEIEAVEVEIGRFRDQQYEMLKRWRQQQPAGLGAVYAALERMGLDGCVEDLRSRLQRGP
# [2] = molecular target: FLAG-FasL (aa 130-281) (human) (UniProt P48023); test: coimmunoprecipitation with protein A-Sepharose, anti-Flag western blot
Substance,binding [1],binding [2]
FLAG-tagged soluble TNF-gamma-beta (aa 72-251) (from UniProt O95150 72-251) (ligand),binds,–
Human Fas(M1-G169)-Fc fusion protein (from UniProt P25445 26-169),–,binds
